Data as given in PubChem BioAssay AID1259405 (NCATS, 2018).
In all, the deposit lists about 50,000 reagents; this is a part drawn at random. In the full data, about 4,000 (8%) got an active call. 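Mouse siRNA library applied to hamster cells; one well for each siRNA.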 The numbers tell different reagents against one gene apart.

Screen: 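Silenced genes that increase secreted GFP made by CHO cells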 (primary screen)
Cell system: Chinese hamster CHO-K1 ovary cells with stable secreted eGFP expression
Reagents: single siRNA against mouse genes, 0.8 pmol siRNA per well (2 µl of 400 nM stock)
Time to read-out: 3 days
Measured: 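Per-well intracellular GFP measured by laser scanning cytometry, plus viability from ATP luminescence, each relative to plate median of non-targeting control wells, in %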
Reading the numbers: GFP, % of control: higher = more GFP per well, higher productivity; viability (ATP), % of control: higher = more viable cells (more ATP)
Rule for the call: 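a knock-down is called active if GFP reaches 120% or more of non-targeting control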

With Vmn1r65 #1, what was measured?
GFP, % of control: 64; viability (ATP), % of control: 52.3; call: inactive

How did the screen score Vmn1r65 #2?
GFP, % of control: 74.6; viability (ATP), % of control: 70.5; call: inactive

For Vmn1r65 #3, how do the results read?
GFP, % of control: 97.5; viability (ATP), % of control: 89.9; call: inactive

For Ube2v1 #1, how do the results read?
GFP, % of control: 78.6; viability (ATP), % of control: 76.5; call: inactive

How did the screen score Ube2v1 #2?
GFP, % of control: 57.5; viability (ATP), % of control: 40; call: inactive

With Ube2v1 #3, what was measured?
GFP, % of control: 63.2; viability (ATP), % of control: 55.1; call: inactive

What is on record for Runx1 #1?
GFP, % of control: 34.9; viability (ATP), % of control: 35.5; call: inactive

For Runx1 #2, what was measured?
GFP, % of control: 57.9; viability (ATP), % of control: 66.7; call: inactive

With Runx1 #3, how do the results read?
GFP, % of control: 107; viability (ATP), % of control: 62.3; call: inactive

How did the screen score 4930486L24Rik #1?
GFP, % of control: 82.8; viability (ATP), % of control: 96.5; call: inactive

For 4930486L24Rik #2, how do the results read?
GFP, % of control: 77; viability (ATP), % of control: 72.6; call: inactive

For 4930486L24Rik #3, what does the deposit list?
GFP, % of control: 71.3; viability (ATP), % of control: 85.2; call: inactive

What did the screen give for Cnnm1 #1?
GFP, % of control: 57.3; viability (ATP), % of control: 88.6; call: inactive

What did the screen give for Cnnm1 #2?
GFP, % of control: 128; viability (ATP), % of control: 104; call: active

How did the screen score Cnnm1 #3?
GFP, % of control: 121; viability (ATP), % of control: 126; call: active

Which result is listed for Gal3st2 #1?
GFP, % of control: 74.8; viability (ATP), % of control: 82.2; call: inactive

For Gal3st2 #2, how do the results read?
GFP, % of control: 100; viability (ATP), % of control: 97.6; call: inactive

For Gal3st2 #3, what was measured?
GFP, % of control: 110; viability (ATP), % of control: 80.3; call: inactive
